Test results from PubChem BioAssay AID540256 (National Center for Advancing Translational Sciences (NCATS), 2011).
Values joined by “and” are separate entries in the source; they are usually repeats but may differ in a detail not shown here. Equal entries are not always repeated. Screen size: about 300,000 compounds; about 3,700 (1.2%) were called active. This list was built around the results that the source calls inconclusive (neither active nor inactive); the mix of calls is not that of the screen. The call rests on the fitted dose curve; tested in HEK293 cells. Where the call is inconclusive, the potency comes from a doubtful curve fit.
On the % scale 0 is the no-effect control and ±100 the full control effect; potency means the concentration at half of the fitted maximal effect.

Test: qHTS for Inhibitors of binding or entry into cells for Lassa Virus; further: nearly all actives have a fitted effect of over 50% in size
Conditions: Lassa virus pseudotype entry inhibition, cell reporter; activity change, negative = inhibition: at 37.9 µM (top of the series) unless noted
In the case of `CCOc1ccc(CNC(=O)CCn2nc(C)c3c(C)n(-c4ccccc4)nc3c2=O)cc1`, the “activity change, negative = inhibition” value is reported as inactive: 13.5% [at 46.1 µM]. In the case of `COc1cccc(CNC(=O)CCS(=O)(=O)c2cc3c(cc2C)NC(=O)CO3)c1`, the Potency is reported as inconclusive: 12.6 µM [inhibitor, single point]. In the case of `CCN(CCCNC(=O)c1nn(-c2ccc(C)cc2)c(=O)c2c1c1ccccc1n2C)c1ccccc1`, the Potency is reported as inconclusive: 5.62 µM [inhibitor, single point]. For `COc1ccc2nc(N3CCCC3)[nH]c2c1`, the Potency was inconclusive: 11.6 µM [activator, single point]. With `Cc1cc(C)cc(NC(=S)N2CCN(S(=O)(=O)c3ccccc3)CC2)c1` the Potency was inconclusive: 35.5 µM [inhibitor, single point]. For `Cc1cc(=O)n2nc(N3CCC(C(=O)Nc4ccc(C(C)C)cc4)CC3)sc2n1`, the “activity change, negative = inhibition” value was inactive: 28.2% [at 46.1 µM]. For `CS(=O)(=O)N1CCN(c2ccc(C(=O)NC34CC5CC(CC(C5)C3)C4)cc2[N+](=O)[O-])CC1`, the Potency was inconclusive: 4.47 µM [inhibitor, partial curve, poor fit]. In the case of `Oc1ccc(/C=N/NC(=S)Nc2cccnc2)cc1O`, the Potency is reported as inconclusive: 35.5 µM [inhibitor, single point]. With `O=[N+]([O-])c1ccccc1/C=N/NC1=NS(=O)(=O)c2ccccc21` the “activity change, negative = inhibition” value was inactive: 17.3% [at 46.1 µM]. For `CCNc1nnc(SCC(=O)c2cc(C)n(C3CC3)c2C)s1`, the Potency was inconclusive: 12.6 µM [activator, single point]. With `CCOc1ccc(S(=O)(=O)NCC(c2ccc3c(c2)OCO3)N2CCN(C)CC2)cc1` (stereo not given) the Potency was inconclusive: 10 µM [inhibitor, partial curve, poor fit]. For `CNC(=O)c1cc(S(=O)(=O)N(C)C)ccc1Cl`, the “activity change, negative = inhibition” value was inactive: 6.58%. In the case of `COc1ccccc1NS(=O)(=O)c1cc(NC(=O)C2CCCO2)ccc1C` (stereo not given), the Potency is reported as inconclusive: 12.6 µM [inhibitor, single point]. In the case of `CCN(CC)CC(O)Cn1c(C)c(-c2ccccc2)c2cc([N+](=O)[O-])ccc21` (stereo not given), the Potency is reported as inconclusive: 35.5 µM [inhibitor, single point]. With `CN1/C(=C\C(=O)CSc2nnc(N)s2)C(C)(C)c2ccccc21` the Potency was inconclusive: 35.5 µM [inhibitor, single point]. For `Cc1ccccc1-n1nc2c(c1NC(=O)c1ccc(S(=O)(=O)N(C)C)cc1)CSC2`, the Potency was inconclusive: 18.3 µM [inhibitor, partial curve, poor fit]. In the case of `CN1CCN(C(=O)CCc2ncc(C(F)(F)F)cc2Cl)CC1`, the Potency is reported as inconclusive: 35.5 µM [inhibitor, single point]. In the case of `COc1cccc(CN(C)C(=O)C2CCC(=O)N(Cc3cccc(F)c3)C2)c1` (stereo not given), the “activity change, negative = inhibition” value is reported as inactive: 12.4%. In the case of `COC(=O)c1c(C)[nH]c(C(=O)CN2C(=O)C3CC=CCC3C2=O)c1C` (stereo not given), the Potency is reported as inconclusive: 3.16 µM [activator, full curve]. In the case of `CC1(C)Cc2c(c(N3CCOCC3)nc3sc4c(=O)[nH]cnc4c23)CS1`, the Potency is reported as inconclusive: 17.8 µM [inhibitor, partial curve, poor fit]. With `CSc1cccc(NC(=O)CN(c2ccc(C)cc2C)S(C)(=O)=O)c1` the Potency was inconclusive: 7.94 µM [inhibitor, partial curve, poor fit]. For `C/C(=N\Nc1nc2ccccc2s1)c1ccc2c(c1)OCO2`, the Potency was inconclusive: 2.06 µM [inhibitor, partial curve, poor fit]. With `CC(=O)N1CCN(C(=S)c2ccc(-c3ccc(Cl)cc3)o2)CC1` the “activity change, negative = inhibition” value was inactive: -21.9%. For `O=C(Nc1ccc(F)cc1)c1ccc(Br)c(S(=O)(=O)N2CCOCC2)c1`, the Potency was inconclusive: 10 µM [inhibitor, partial curve, poor fit]. In the case of `CC(C)C/C(=N/O)c1c[nH]c2ccccc12`, the Potency is reported as inconclusive: 12.6 µM [inhibitor, partial curve, poor fit]. With `O=C(Nc1cn(-c2ccccc2)nc1-c1cccs1)c1ccco1` the “activity change, negative = inhibition” value was inactive: 3.4%. In the case of `c1ccc(CCSc2nccn2-c2ccccc2)cc1`, the “activity change, negative = inhibition” value is reported as inactive: 7.15%. In the case of `Cc1ccc(C)c(S(=O)(=O)c2c(C)cc(C)nc2Cl)c1`, the Potency is reported as inconclusive: 35.5 µM [activator, partial curve, poor fit]. For `CCn1nc(NS(=O)(=O)c2ccc(C)cc2)c2cc3ccccc3nc21`, the Potency was inconclusive: 31.6 µM [activator, single point]. For `CCOc1cc(C(Nc2cc(C)ccn2)c2ccc3cccnc3c2O)ccc1OC` (stereo not given), the Potency was active: 5.62 µM. For `Cc1cccc(N(C)C(=O)c2cc3cc4ccc(C)cc4nc3o2)c1`, the Potency was inconclusive: 6.31 µM [inhibitor, full curve, poor fit]. For `O=C(/C=C/c1cnc2ccccc2n1)NC12CC3CC(CC(C3)C1)C2`, the “activity change, negative = inhibition” value was inactive: 14.5%. In the case of `CCOC(=O)c1ccc(NC2Nc3cc(C)nn3S2)cc1` (stereo not given), the Potency is reported as inconclusive: 20 µM [activator, single point]. With `O=C(Cc1cccs1)NCc1ccccc1F` the “activity change, negative = inhibition” value was inactive: -17.4%. In the case of `COc1ccccc1NC(=O)c1c(C)cc(C)nc1SCC(=O)Nc1ccc(C)cc1`, the “activity change, negative = inhibition” value is reported as inactive: -28% [at 46.1 µM]. In the case of `CCCCOC(=O)/C(=C/c1cn(C)c2ccccc12)NC(=O)c1ccc(OC)cc1`, the Potency is reported as inconclusive: 1 µM [inhibitor, single point]. For `C=CCOc1ccccc1CN(CCc1ccccc1)C(=O)c1cccc(S(C)(=O)=O)c1`, the Potency was inconclusive: 15.8 µM [inhibitor, partial curve, poor fit]. For `COc1cc(C(=O)NCc2nnc(SCC(=O)NCCc3ccccc3)o2)cc(OC)c1OC`, the “activity change, negative = inhibition” value was inactive: -4.58% [at 46.1 µM]. For `COc1ccc(/C=N/Nc2cc(C)nc3ccc(OC)cc23)c(OC)c1`, the Potency was inconclusive: 35.5 µM [inhibitor, single point]. With `CCCCOc1ccc(C(=O)NNC(=O)c2cnccn2)cc1OC` the Potency was inconclusive: 17.8 µM [inhibitor, single point]. In the case of `O=C(c1ccc(CNS(=O)(=O)c2ccccc2)cc1)N1CCN(Cc2ccccc2)CC1`, the Potency is reported as inconclusive: 20.6 µM [inhibitor, partial curve, poor fit]. For `Cc1ccc(Sc2ncccc2[N+](=O)[O-])cc1`, the Potency was inconclusive: 11.2 µM [activator, partial curve, poor fit]. With `O=C(CSCc1ccc(F)cc1)NCc1ccco1` the Potency was inconclusive: 0.164 µM [activator, full curve, poor fit]. In the case of `O=C(Nc1ccc(C(=O)N2CCOCC2)cc1)c1cc(-c2cccnc2)nc2ccc(Br)cc12`, the Potency is reported as inconclusive: 10 µM [inhibitor, partial curve, poor fit]. With `CCCCNC(=O)Nc1ccc2c(c1)N(C)C(=O)c1ccccc1S2` the Potency was “inactive and inconclusive: 3.55 µM [inhibitor, single point]”. For `CCCCn1ccnc1C(=O)c1cccc(S(=O)(=O)N2c3ccccc3CC2C)c1` (stereo not given), the Potency was inconclusive: 10 µM [inhibitor, partial curve]. For `CN(CCOc1ccccc1)CCOc1ccccc1`, the Potency was inconclusive: 35.5 µM [inhibitor, single point]. For `CC(C)OCCCn1c(-c2ccc(Br)cc2)c[nH]c1=S`, the Potency was inconclusive: 15.8 µM [inhibitor, partial curve, poor fit]. In the case of `CCCCC(=O)NC(c1ccco1)c1cc(Cl)c2cccnc2c1O` (stereo not given), the Potency is reported as inconclusive: 28.2 µM [inhibitor, single point]. With `CO/N=C/c1ccc(Sc2ccccc2)c([N+](=O)[O-])c1` the Potency was inconclusive: 7.08 µM [inhibitor, partial curve, poor fit]. In the case of `O=C1C2C3C=CC(C4CC34)C2C(=O)N1/N=C/c1ccc(-c2ccc(Cl)cc2[N+](=O)[O-])o1` (stereo not given), the Potency is reported as inconclusive: 17.8 µM [inhibitor, partial curve, poor fit]. For `CN(C)CCSc1nnc2sc3ccccc3n12`, the “activity change, negative = inhibition” value was inactive: 6.2%. For `CCc1ccccc1NC(=O)Nc1ccc2c(c1)OCO2`, the “activity change, negative = inhibition” value was inactive: 5.46%. For `COc1cc(NC(=O)c2cc3c(=O)n(Cc4ccco4)ccc3nc2C)cc(OC)c1OC`, the “activity change, negative = inhibition” value was inactive: 3.58% [at 46.1 µM]. With `CCC(C)(C)NC(=O)C(c1sccc1C)N(Cc1ccco1)C(=O)c1csnn1` (stereo not given) the Potency was inconclusive: 8.91 µM [inhibitor, partial curve]. With `CC1CCN(CCOc2cccc(Br)c2)CC1` the Potency was inconclusive: 1.26 µM [inhibitor, partial curve, poor fit]. In the case of `CC(C)C(=O)Nc1cccc(NC(=O)c2cccc([N+](=O)[O-])c2)c1`, the “activity change, negative = inhibition” value is reported as inactive: 1.9%. For `O=C(COc1ccc(Br)cc1Br)NN1C(=O)c2ccccc2C1=O`, the Potency was inconclusive: 12.6 µM [inhibitor, partial curve, poor fit]. In the case of `Cc1ccc(OCCSCc2nnc(NC(=O)Nc3cccc(Cl)c3)s2)cc1`, the Potency is reported as inconclusive: 11.2 µM [inhibitor, partial curve]. For `CCOC(=O)c1ccc(N(CCC2CO2)S(=O)(=O)c2ccc(C)cc2)cc1` (stereo not given), the Potency was inconclusive: 22.4 µM [inhibitor, partial curve, poor fit]. For `CC(=O)NC1=NN(C(C)=O)C(c2ccccc2)S1` (stereo not given), the Potency was inconclusive: 35.5 µM [activator, single point]. With `CC(=O)N(Cc1cccnc1)Cc1cc2ccccc2[nH]c1=O` the Potency was inconclusive: 0.651 µM [inhibitor, single point]. With `Cc1ccc(N(C)S(=O)(=O)c2cccc(C(=O)N(C)Cc3cnn(-c4ccccc4)c3)c2)cc1` the Potency was inconclusive: 31.6 µM [inhibitor, single point]. With `COc1ccc(-c2csc(NC(=S)NC(=O)/C=C/c3ccco3)n2)cc1OC` the Potency was inconclusive: 8.91 µM [inhibitor, partial curve, poor fit]. With `CCCC(=O)Nc1ccc2c(c1)nc1n2CCN(CCOC)C1` the Potency was inconclusive: 14.1 µM [activator, partial curve].
